Reference: PubChem BioAssay AID1671190 (National Center for Advancing Translational Sciences (NCATS), 2021)
Where “and” joins values, the source holds several entries; their conditions need not be identical. Identical values can stand only once. Hit rate of the full screen: of about 580,000 compounds, about 6,100 (1.1%) were called active. Inconclusive means that the source gave no clear call. Such entries were picked first, then a sample of the others. Calls come from the whole dose curve; as a rule, active = well fitted inhibition curve with a large enough effect; inconclusive = small, poorly fitted or top-dose-only effect, or another doubt; inactive = no such curve, though single readings can be large or run the other way. Potencies beside an inconclusive call are fits to weak or partial responses and may not hold up.

Chains of the proteins cited; added tags and fusions are not shown. Lines headed by an entry give the natural chain unless they say otherwise; changes in a name come on top.
UniProt P18054: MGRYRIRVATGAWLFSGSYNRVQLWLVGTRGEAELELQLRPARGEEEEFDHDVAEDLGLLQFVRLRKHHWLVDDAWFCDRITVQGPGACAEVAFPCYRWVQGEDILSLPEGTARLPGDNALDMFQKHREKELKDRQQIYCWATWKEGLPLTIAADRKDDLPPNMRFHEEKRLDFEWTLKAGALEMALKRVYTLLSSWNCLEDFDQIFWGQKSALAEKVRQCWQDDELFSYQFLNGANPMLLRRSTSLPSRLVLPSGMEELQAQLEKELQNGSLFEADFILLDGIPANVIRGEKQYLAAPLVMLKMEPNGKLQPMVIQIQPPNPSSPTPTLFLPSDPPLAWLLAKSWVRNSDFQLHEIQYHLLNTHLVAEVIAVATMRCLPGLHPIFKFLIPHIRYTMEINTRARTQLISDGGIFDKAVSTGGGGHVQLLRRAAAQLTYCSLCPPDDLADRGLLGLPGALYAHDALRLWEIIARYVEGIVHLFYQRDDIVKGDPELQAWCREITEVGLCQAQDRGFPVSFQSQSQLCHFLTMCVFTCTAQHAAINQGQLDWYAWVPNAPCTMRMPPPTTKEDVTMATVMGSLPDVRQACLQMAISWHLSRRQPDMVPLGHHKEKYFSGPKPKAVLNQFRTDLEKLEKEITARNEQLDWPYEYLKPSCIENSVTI

Each compound was assayed against Polyunsaturated fatty acid lipoxygenase ALOX12 (Homo sapiens) (UniProt P18054) (assay: Primary qHTS assay for inhibitors of human arachidonate 12S-lipoxygenase (ALOX12): Round 2). Conditions: purified 12hLO, xylenol orange hydroperoxide absorbance; activity change, negative = inhibition: at 108 µM (top of the series) unless noted.
In short: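 Purified human 12hLO (150 nM final) in 25 mM Hepes, 0.01% Triton X-100, pH 7.0 was preincubated 15 min at room temperature with compound. Then 40 uM arachidonic acid was added, 30 min. Hydroperoxide was read by Fe-XO absorbance ratio 573/405 nm.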
% is set by controls: 0 for no effect and ±100 for the full control effect; potency is the fitted concentration of half-maximal effect.

Compound | Potency | activity change, negative = inhibition
Nc1nc2c(s1)C(c1ccc(F)c(F)c1)CC(=O)N2 (centres undefined) | inconclusive: 8.91 µM [inhibitor, full curve, poor fit] | 
Cc1ccc(-n2ncc3c(NCCc4ccccc4)ncnc32)cc1 | active: 28.2 µM | 
COc1ccc(-c2coc3cc(OCC(=O)N4CCN(c5ccccn5)CC4)ccc3c2=O)cc1 | inconclusive: 39.8 µM [inhibitor, partial curve, poor fit] | 
COC(=O)[C@H](C(C)C)N(Cc1cn(Cc2ccccc2)nn1)S(=O)(=O)c1ccc(F)cc1Br | inconclusive: 3.16 µM [inhibitor, full curve, poor fit] | 
CC(OC(=O)c1ccc2ccccc2n1)C(=O)c1ccccc1 (centres undefined) | inconclusive: 31.6 µM [inhibitor, partial curve, poor fit] | 
CN1CCN(c2ncc3c(n2)CCN(Cc2ccccc2Cl)C3)CC1 | inconclusive: 112 µM [inhibitor, single point] | 
Cc1ccc(-c2cc(C(=O)Nc3ccccn3)c3ccccc3n2)cc1 | inconclusive: 79.4 µM [inhibitor, single point] | 
COc1ccc2oc(C(=O)OCC(=O)Nc3ccc(NC(C)=O)cc3)c(C)c2c1 | inconclusive: 141 µM [inhibitor, partial curve, poor fit] | 
CCn1cc(CN2CCC3(CCC(=O)N(C(C)C(=O)O)C3)CC2)cn1 (centres undefined) |  | inactive: -5.41%
CCOC(=O)c1sc(N)c(SC#N)c1C | inconclusive: 0.316 µM [inhibitor, full curve, poor fit] | 
Cc1ccc(C(=O)NC(C)C2CCCO2)cc1 (centres undefined) |  | inactive: -2.27%
[O-]/C(=C(\C(=S)Nc1ccc(SC(F)F)cc1)[n+]1ccccc1)c1ccc(Cl)cc1Cl | inconclusive: 44.7 µM [inhibitor, partial curve] | 
CCN1/C(=C/c2cc[n+](CCCS(=O)(=O)[O-])c3ccccc23)Sc2ccccc21 | inconclusive: 20 µM [inhibitor, partial curve, poor fit] | 
Cc1ccsc1/C=C1/SC(=O)N(CC(=O)N2CCOCC2)C1=O |  | inactive: -29.2%
CCCc1noc(-c2ccn3c(CNC(=O)c4ccc(F)c(Cl)c4)nnc3c2)n1 | active: 50.1 µM | 
COc1ccc(CNC(=S)Nc2ccc3nc(N4CCOCC4)cc(C)c3c2)cc1 | inconclusive: 50.1 µM [inhibitor, partial curve, poor fit] | 
Cc1cc(=O)n(CC(C)O)c(O)c1C#N (centres undefined) | inconclusive: 44.7 µM [inhibitor, partial curve, poor fit] | 
Cc1ccc(S(=O)(=O)OCC(=O)Nc2ccc(C(=O)O)c(O)c2)cc1 | inconclusive: 3.43 µM [inhibitor, partial curve, poor fit] and inconclusive: 44.7 µM [inhibitor, partial curve, poor fit] | 
O=C(Nc1nc(-c2ccc(Cl)s2)cs1)c1ccccc1F | inconclusive: 35.5 µM [inhibitor, partial curve, poor fit] | 
COCc1cc(N2CCNC[C@@H]2C)ccc1N1C[C@@H](C)O[C@@H](C)C1 | inconclusive: 39.8 µM [inhibitor, partial curve, poor fit] | 
COC(=O)C(C)NC(=S)N1CCN(c2c(F)cc3c(=O)c(C(=O)O)cn(C4CC4)c3c2OC)CC1C (centres undefined) | active: 8.91 µM | 
COc1ccc(Br)c(C(=O)N[C@@H]2C=C(C(=O)NCCC(N)=O)C[C@@H](O)[C@@H]2O)c1 | inconclusive: 89.1 µM [inhibitor, partial curve, poor fit] | 
COc1ccc2c(c1)C(O)(CC(=O)c1ccc(F)cc1)C(=O)N2 (centres undefined) | inconclusive: 3.98 µM [inhibitor, full curve] | 

Compound | Potency | activity change, negative = inhibition
CCOc1ccc(Nc2c(S(=O)(=O)c3ccc(C)cc3)cnc3ccccc23)cc1 |  | inactive: 3.11%
Cc1c2cnn(-c3ccccc3)c(=O)c2c(C)n1CC(=O)NCc1ccc(Cl)cc1 | inconclusive: 100 µM [inhibitor, partial curve, poor fit] | 
COc1ccc(-c2cc3c(=O)n(CCNC(=O)c4ccccc4C)ccn3n2)cc1 |  | inactive: 44.4%
Cc1ccc[n+](Cc2ccc([N+](=O)[O-])cc2)c1 |  | inactive: -8.15%
CCc1ccc(C(=O)c2sc(Nc3cccc(Cl)c3)nc2N)cc1 | inconclusive: 28.2 µM [inhibitor, partial curve, poor fit] | 
CC12CCC(C/C1=N\NC(N)=S)C2(C)C (centres undefined) | inconclusive: 44.7 µM [inhibitor, partial curve, poor fit] | 
COCCCNC(=O)CC(NS(=O)(=O)c1ccc(Cl)cc1)c1ccco1 (centres undefined) | inconclusive: 39.8 µM [inhibitor, single point] | 
O=C(NNc1ccccc1[N+](=O)[O-])Nc1ccc(Cl)c(Cl)c1 | inconclusive: 44.7 µM [inhibitor, partial curve, poor fit] | 
CCOC(=O)[C@H]1NN=C(C(=O)OC)[C@@H]1c1ccccc1 |  | inactive: 10.8%
Cc1ccc(C23CC4CC(CC(C(N)=O)(C4)C2)C3)cc1 |  | inactive: 29.2%
O=C(CN1CCN(S(=O)(=O)N2CCCCC2)CC1)Nc1ccc(Br)cc1 | inconclusive: 141 µM [inhibitor, partial curve, poor fit] | 
Cc1c(Cl)cccc1NC(=O)CNC(=O)CCCc1nc2ccccc2c(=O)[nH]1 | inconclusive: 79.4 µM [inhibitor, single point] | 
OC(COc1ccc2c(c1)CCC2)CN1CCN(c2ccccc2F)CC1 (centres undefined) |  | inactive: 2.71%
Cn1c(=O)c2c(nc(SCCCC#N)n2Cc2ccc(Cl)c(Cl)c2)n(C)c1=O | inconclusive: 44.7 µM [inhibitor, single point] | 
Cc1ccc(OCCCC(=O)Nc2ccc(S(N)(=O)=O)cc2)cc1 | inconclusive: 56.2 µM [inhibitor, partial curve, poor fit] | 
C/C=C(/C)C(=O)Nc1cccc(C2=NOC3(C2)C[C@@H](C(N)=O)N(C(=O)c2ccc(OC)cc2)C3)c1 (some centres undefined) | inconclusive: 35.5 µM [inhibitor, single point] | 
Cc1ccc(-c2nnc(C3CN(C(=O)c4ccc(Cl)s4)CC34CCOCC4)o2)cc1 (centres undefined) |  | inactive: 16.5%
O=C(CNC(=O)c1ccccc1)NCC(=O)OCC(=O)c1ccc([N+](=O)[O-])cc1 |  | inactive: -14.6%
CCOC(=O)c1cnc2c(Cl)c(Cl)ccc2c1NCC(C)O (centres undefined) | inconclusive: 31.6 µM [inhibitor, partial curve, poor fit] | 
COc1ccc(Nc2nc(-c3cccc(OC)c3OC)no2)cc1 |  | inactive: 63.4%
CC(C)NS(=O)(=O)c1ccc2c(c1)nc(-c1ccc(-c3ccn[nH]3)o1)n2C(C)C | inconclusive: 25.1 µM [inhibitor, full curve, poor fit] | 
CC(C)(C)OC(=O)N1CCC(c2c(C(=O)NCCN3CCOCC3)cnn2-c2ccccc2)CC1 | inconclusive: 31.6 µM [inhibitor, partial curve, poor fit] | 
CC(C)NC(=O)CCNC(=O)N1CCN(C(=O)c2cc3ccccc3[nH]2)CC1 |  | inactive: 21.1%

Compound | Potency | activity change, negative = inhibition
CC(C)N(Cc1nc(-c2ccccc2)no1)C(=O)C1CCCCC1 |  | inactive: 7.84%
CC1=C(C(=O)OC(C)(C)C)C(c2ccc(Cl)cc2Cl)C(C#N)=C(N)O1 (centres undefined) | inconclusive: 17.8 µM [inhibitor, partial curve] | 
O=c1oc(-c2ccc(O)c(O)c2)cc2cc(O)cc(O)c12 | active: 2.51 µM | 
CCN(c1ccccc1)S(=O)(=O)c1cc(C(=O)Nc2ccc(Br)cc2)ccc1F | inactive | 
CCC(CC)C(=O)Nc1ccc([C@@H](O)[C@H]2COCC(=O)N2CC)cc1 |  | inactive: 92.7% [at 176 µM]
CCC1CCCCN1C(=O)CSc1nnc2nc(C)cc(C)n12 (centres undefined) |  | inactive: -21.6%
COc1ccccc1/C=C/c1nc(C#N)c(NCCCn2ccnc2)o1 |  | inactive: 15.9%
CCCCNC(=O)c1ccc(-c2nc(CS(=O)(=O)c3ccc(C)cc3)c(C)o2)cc1 | inconclusive: 141 µM [inhibitor, partial curve, poor fit] | 
COc1cc(-c2nc3ccccc3s2)ccc1OC(C)C |  | inactive: -2.3%
CCCS(=O)(=O)NC(=O)C1(C)CCCN(C(=O)c2cccnc2Oc2ccccc2)C1 (centres undefined) | inconclusive: 100 µM [inhibitor, single point] | 
CC1=C(c2ccc(Cl)cc2)S(=O)(=O)N=C1N1CCN(c2cccc(C)c2)C(C)C1 (centres undefined) |  | inactive: -23.7%
CC1NC(=O)NC1CCCCCC(=O)Nc1ccc(F)cc1 (centres undefined) |  | inactive: 2.12%
Cc1ccc(NC(=O)C2=C(c3ccccc3)NC(=S)NC2c2ccc(Cl)cc2)cc1 (centres undefined) | active: 35.5 µM | 
CC(=O)c1n[nH]nc1NC(=O)c1ccccc1 | inconclusive: 3.16 µM [inhibitor, full curve, poor fit] | 
O=C1CCCN1c1ccc(S(=O)(=O)NCCOc2ccccc2)cc1 |  | inactive: 93% [at 57.4 µM]
Cc1ccc(-c2csc(=Nc3ccccc3)n2CCCO)cc1 | active: 44.7 µM | 
CC(=O)c1ccc(N2CCN(C(=O)c3ccco3)C(C)C2)c(F)c1 (centres undefined) | inconclusive: 70.8 µM [inhibitor, partial curve, poor fit] | 
OCC1(CNCc2cccnc2)C[C@@H](O)[C@@H](O)C1 (some centres undefined) | active: 20 µM | 
CC1(NC(=S)NCCCCCCNC(=S)NC2(C)CCS(=O)(=O)C2)CCS(=O)(=O)C1 (centres undefined) | inconclusive: 39.8 µM [inhibitor, single point] | 
CC(c1nnc(SCCOc2ccc(Cl)cc2)n1-c1ccc(Cl)cc1)N(C)C (centres undefined) |  | inactive: -19.5%
Cn1cccc1C(=O)OCC(=O)NC(=O)NC1CCCCC1 | inconclusive: 112 µM [inhibitor, single point] | 
C=CCc1ccccc1OCC(O)CN1CCN(c2ccc(OC)cc2)CC1 (centres undefined) |  | inactive: 0%
Cc1cc2nc(/C(C#N)=C\c3c[nH]c4ccc(Br)cc34)[nH]c2cc1C | inconclusive: 4.47 µM [inhibitor, full curve, poor fit] | 
